Assay results: article PMC13189624, “MORC2 mediates transcriptional regulation through liquid-liquid phase separation” (eLife, 2026)
These are yes or no findings as the source states them, for the method shown. Some entries that bind do so weakly or less than the wild type. One block for each binder: values may come before it.

Legend:
[1] = target: T1, MORC2 IDR-binding domain (IBD, residues 1004-1032) (human) (UniProt Q9Y6X9); assay: NMR titration; 15N-HSQC; IDR or IDR subregion titrated into 15N-labelled IBD or CC3; 50 mM Tris-HCl pH 8.0, 100 mM NaCl, 7% D2O; 298 K; protein 0.5 to 1.0 mM; both purified
T1 sequence: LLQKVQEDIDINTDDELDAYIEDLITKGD

[2] = target: T2, MORC2 CC3 domain (residues 901-1003) (human) (UniProt Q9Y6X9); assay: as above
T2 sequence: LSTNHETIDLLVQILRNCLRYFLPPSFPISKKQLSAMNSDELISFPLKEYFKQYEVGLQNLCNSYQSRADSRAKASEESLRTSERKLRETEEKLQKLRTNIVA

[3] = target: MORC2 1-900 (full-length MORC2 lacking CC3-IBD) (human) (UniProt Q9Y6X9); assay: SEC-MALS; size-exclusion chromatography with static light scattering (miniDawn); fragments at 70 μM; Superdex 200 increase or Superose 6 increase; 50 mM Tris-HCl pH 8.0, 150 mM NaCl, 1 mM EDTA, 1 mM DTT; both purified

binding [1]: binds weakly
binding [2]: no binding
B1: MORC2 IDR (residues 593-735) (domain or fragment, UniProt Q9Y6X9 593-735)
chain: LPLEVTTRPSTEEPVRRPQRPRSPPLPAVIRNAPSRPPSLPTPRPASQPRKAPVISSTPKLPALAAREEASTSRLLQPPEAPRKPANTLVKTASRPAPLVQQLSPSLLPNSKSPREVPSPKVIKTPVVKKTESPIKLSPATPS

binding [3]: no binding (tested: 70 μM)
B2: MORC2 1-900 (full-length MORC2 lacking CC3-IBD) (domain or fragment, UniProt Q9Y6X9 1-900)
chain: MAFTNYSSLNRAQLTFEYLHTNSTTHEFLFGALAELVDNARDADATRIDIYAERREDLRGGFMLCFLDDGAGMDPSDAASVIQFGKSAKRTPESTQIGQYGNGLKSGSMRIGKDFILFTKKEDTMTCLFLSRTFHEEEGIDEVIVPLPTWNARTREPVTDNVEKFAIETELIYKYSPFRTEEEVMTQFMKIPGDSGTLVIIFNLKLMDNGEPELDIISNPRDIQMAETSPEGTKPERRSFRAYAAVLYIDPRMRIFIHGHKVQTKRLSCCLYKPRMYKYTSSRFKTRAEQEVKKAEHVARIAEEKAREAESKARTLEVRLGGDLTRDSRVMLRQVQNRAITLRREADVKKRIKEAKQRALKEPKELNFVFGVNIEHRDLDGMFIYNCSRLIKMYEKVGPQLEGGMACGGVVGVVDVPYLVLEPTHNKQDFADAKEYRHLLRAMGEHLAQYWKDIAIAQRGIIKFWDEFGYLSANWNQPPSSELRYKRRRAMEIPTTIQCDLCLKWRTLPFQLSSVEKDYPDTWVCSMNPDPEQDRCEASEQKQKVPLGTFRKDMKTQEEKQKQLTEKIRQQQEKLEALQKTTPIRSQADLKKLPLEVTTRPSTEEPVRRPQRPRSPPLPAVIRNAPSRPPSLPTPRPASQPRKAPVISSTPKLPALAAREEASTSRLLQPPEAPRKPANTLVKTASRPAPLVQQLSPSLLPNSKSPREVPSPKVIKTPVVKKTESPIKLSPATPSRKRSVAVSDEEEVEEEAERRKERCKRGRFVVKEEKKDSNELSDSAGEEDSADLKRAQKDKGLHVEVRVNREWYTGRVTAVEVGKHVVRWKVKFDYVPTDTTPRDRWVEKGSEDVRLMKPPSPEHQSLDTQQEGGEEEVGPVAQQAIAVAEPSTSECLRIEPDTTA

binding [1]: binds weakly
B3: MORC2 IDRa (residues 593-643) (domain or fragment, UniProt Q9Y6X9 593-643)
chain: LPLEVTTRPSTEEPVRRPQRPRSPPLPAVIRNAPSRPPSLPTPRPASQPRK
